Assay results taken from PubChem BioAssay AID504444 (National Center for Advancing Translational Sciences (NCATS), 2011).
In all, about 360,000 compounds went through this assay and about 7,500 (2.1%) were called active. Inconclusive means that the source gave no clear call. Such entries were picked first, then a sample of the others. Calls follow the shape of the dose curve; as a rule, active = well fitted inhibition curve with a large enough effect; inconclusive = small, poorly fitted or top-dose-only effect, or effect the other way; inactive = flat fitted curve, though single readings scatter. Potencies beside an inconclusive call are fits to weak or partial responses and may not hold up.

Test: Nrf2 qHTS screen for inhibitors; also: nearly all actives have a fitted effect of over 60% in size
Conditions: A549 ARE-Fluc reporter, luciferase luminescence, 18-24 h; series mostly up to 46 µM
Outline: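 Nrf2 activity is the BugLite luminescence, read 15 min after reagent at room temperature, following CellTiter-Fluor cytotoxicity readout (30 min, 37C). Compound titrations were applied for 18-24 h to 5000 A549 ARE_Fluc cells/well in 5% FBS OPTI-MEM.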
Potency is read from the fitted curve at half-maximal effect.

SMILES	Potency
Cc1cccc2sc(NC(=O)C3CCN(S(=O)(=O)c4cc([N+](=O)[O-])ccc4Cl)CC3)nc12	active: 11.6 µM
O=C(CSc1ccccc1F)Nc1ccc2c(c1)OCO2	inconclusive: 4.11 µM [activator, full curve]
Cc1ccc(CNc2nc3ccc(Cl)cc3n3cnnc23)cc1	inactive
CCC(=O)Nc1nc(C)c(-c2csc(Nc3cccc(O)c3)n2)s1	inactive
CCc1cccc(C)c1Nc1c(-c2ccc(SC)cc2)nc2sccn12	inactive
CCOC(=O)c1c(-c2ccc(C)o2)csc1NC(=O)CN1CCC(C(N)=O)CC1	inactive
CC1CCC(NC(=O)CNC(=O)c2cccs2)CC1 (configuration not stated)	inconclusive: 16.4 µM [activator, partial curve, poor fit]
CC(C)C(NC(=O)c1ccccc1F)C(=O)Nc1nccs1 (configuration not stated)	inconclusive: 4.11 µM [falling, partial curve, poor fit]
O=C(O)CCCN1C(=O)/C(=C/c2cn(-c3ccccc3)nc2-c2cccs2)SC1=S	inconclusive: 23.1 µM [falling, single point]
Cc1ccc(C)c(OCCC(=O)OCC(=O)Nc2cc(S(=O)(=O)N3CCOCC3)ccc2C)c1	inconclusive: 29.1 µM [activator, single point]
COc1ccccc1CCNC(=O)C(=O)Nc1cc2c3c(c1)CC(=O)N3CCC2	inconclusive: 29.1 µM [falling, single point]
Cc1c(Cl)cnc(NC(=O)COC(=O)C(NC(=O)c2ccco2)C(C)C)c1Cl (configuration not stated)	inconclusive: 23.1 µM [activator, single point]
Cc1ccc(S(=O)(=O)N(Cc2cccc(C)c2)C(=O)N2CCN(C)CC2)cc1	inconclusive: 7.31 µM [activator, full curve, poor fit]
O=C(NC1(C(=O)NC2CCCCC2)CCCCC1)c1ccccn1	inconclusive: 29.1 µM [activator, single point]
Cn1cccc1/C=N/NC(=O)Cc1cccc2ccccc12	active: 18.4 µM
Cc1c(Cl)ccc2sc(NC(=O)c3ccco3)nc12	inconclusive: 10.3 µM [activator, partial curve]
COc1cccc2cc(-c3csc(NC(=O)CCC(=O)NCCCN4CCC(C)CC4)n3)c(=O)oc12	inconclusive: 3.26 µM [activator, full curve]
Cc1onc(-c2ccccc2Cl)c1C(=O)N1CCN=C1SCc1cccnc1	inconclusive: 0.103 µM [falling, full curve, poor fit]
Cn1c(NC(=O)c2ccc(F)cc2)c(-c2ccccn2)c(=O)c2ccccc21	inactive
CCOCCCNC(=O)C1CC(=O)N(CCc2ccc(C)cc2)C1 (configuration not stated)	inconclusive: 16.4 µM [activator, partial curve, poor fit]
c1ccc2sc(NC3=NCN(Cc4ccc5c(c4)OCO5)CN3)nc2c1	inconclusive: 23.1 µM [falling, partial curve]

SMILES	Potency
CCCN1CCC(=O)N(C(CSc2ccc(OC)cc2)CC(C)C)CC1 (configuration not stated)	inconclusive: 11.6 µM [activator, partial curve]
O=C(Nc1ccc2c(c1)OCCO2)Nc1ccc2c(c1)OCO2	inconclusive: 20.6 µM [activator, partial curve]
O=C(C[n+]1cccc(Br)c1)c1cccs1	inactive
CN(C)CCNC(=O)c1ccc(-n2c(-c3ccccc3)cc3c2CCCCC3)cc1	inconclusive: 29.1 µM [falling, single point]
O=C(c1sccc1Cl)N1CCN(Cc2ccc3c(c2)OCO3)CC1	inconclusive: 23.1 µM [falling, single point]
Fc1ccc2nc(Nc3nc4c(s3)CCCC4)sc2c1	inconclusive: 20.6 µM [activator, partial curve]
Cc1ccc(CN(Cc2ccco2)C(=O)c2ccc(Cl)cc2Cl)cc1	inconclusive: 10.3 µM [falling, partial curve]
COc1cccc(C(=O)Nc2cc(C)on2)c1OC	inconclusive: 6.51 µM [activator, partial curve]
C#CCOCCOCCOCCNc1nc(N2CCN(C(=O)CCCCCCCCCCNC(=O)[C@H]([C@@H](C)CC)n3cc(CCCCN=C(N)N)nn3)CC2)nc(N2CCN(C(=O)CCCCCCCCCCNC(=O)[C@@H]([C@H](C)O)n3cc(C)nn3)CC2)n1	active: 23.1 µM
O=C(CSc1ccc(-c2cccs2)nn1)Nc1ccccc1	active: 18.4 µM
N#Cc1c(N)nc2c(c1-c1ccncc1)CCCCC2	inactive
COC(=O)[C@@]12CCCCN1[C@H](c1ccc(SC3CCCCC3)c(OC)c1)[C@@H]1C(=O)N(C)C(=O)[C@@H]12	inconclusive: 23.1 µM [falling, single point]
COC(=O)COc1ccc2oc(=O)cc(-c3cc4cccc(OC)c4o3)c2c1	inactive
COc1ccc(Cn2nnnc2C(c2ccccn2)N2CCN(c3cc(Cl)ccc3C)CC2)cc1 (configuration not stated)	inconclusive: 23.1 µM [falling, single point]
CN(Cc1nc2ccccc2c(=O)[nH]1)C(=O)c1cccc(S(=O)(=O)N2CCc3ccccc32)c1	inconclusive: 29.1 µM [activator, single point]
O=C(NC(=S)Nc1ccccc1Br)C1CCCC1	inconclusive: 16.4 µM [activator, partial curve]
CN1N/C(=C\c2ccccc2)N=C2C(=O)N(C)C(=O)N=C21	inconclusive: 2.91 µM [falling, full curve, poor fit]
Cc1nc(CS(=O)(=O)c2ccc(Cl)cc2)cc(Sc2ccccc2Cl)n1	inactive
COc1cccc(CNc2nc3ccccc3c3nc(-c4cccc(C)c4)nn23)c1	inconclusive: 9.2 µM [activator, partial curve]
Cc1nn2c(N3CCOCC3)c3c(nc2c1-c1ccccc1)CCCC3	inconclusive: 29.1 µM [falling, single point]
CCn1cnc2sc(C(=O)Nc3ccc4c(c3)OCO4)c(C)c2c1=O	inconclusive: 10.3 µM [activator, partial curve, poor fit]

Two consecutive records already listed, for reference:
SMILES	Potency
Fc1ccc2nc(Nc3nc4c(s3)CCCC4)sc2c1	inconclusive: 20.6 µM [activator, partial curve]
Cc1ccc(CN(Cc2ccco2)C(=O)c2ccc(Cl)cc2Cl)cc1	inconclusive: 10.3 µM [falling, partial curve]
